Assay results published in publication PMC4413655.

B1: IFN-induced protein with tetratricopeptide repeats 3 (IFIT3) (protein, UniProt O14879 1-490)
chain: MSEVTKNSLEKILPQLKCHFTWNLFKEDSVSRDLEDRVCNQIEFLNTEFKATMYNLLAYIKHLDGNNEAALECLRQAEELIQQEHADQAEIRSLVTWGNYAWVYYHLGRLSDAQIYVDKVKQTCKKFSNPYSIEYSELDCEEGWTQLKCGRNERAKVCFEKALEEKPNNPEFSSGLAIAMYHLDNHPEKQFSTDVLKQAIELSPDNQYVKVLLGLKLQKMNKEAEGEQFVEEALEKSPCQTDVLRSAAKFYRRKGDLDKAIELFQRVLESTPNNGYLYHQIGCCYKAKVRQMQNTGESEASGNKEMIEALKQYAMDYSNKALEKGLNPLNAYSDLAEFLETECYQTPFNKEVPDAEKQQSHQRYCNLQKYNGKSEDTAVQHGLEGLSISKKSTDKEEIKDQPQNVSENLLPQNAPNYWYLQGLIHKQNGDLLQAAKCYEKELGRLLRDAPSGIGSIFLSASELEDGSEEMGQGAVSSSPRELLSNSEQLN

Tests used:
[1] = molecular target: T1, IFIT3-STrEP-tag fusion protein (IFN-induced protein with tetratricopeptide repeats 3 fused at its C-end to the One-STrEP Tag) (human) (UniProt O14879); test: pull-down; One-STrEP affinity chromatography: lysate of L3.6pl cells transfected with pEXPR-IFIT3 bound on affinity columns, extensively washed, eluted with biotin buffer; fractions analysed by Western blot; empty-vector lysate as negative control
T1 sequence: B1 chain

[2] = molecular target: JNK (human (endogenous in L3.6pl)); test: co-IP; immunoprecipitation with anti-JNK and anti-STAT1 antibodies from L3.6pl lysate, Western blot with anti-IFIT3 antibody

binding [1] | binding [2] | Molecule
no binding | – | Akt (human (endogenous in L3.6pl))
binds | – | JNK (human (endogenous in L3.6pl))
– | binds | B1

These are yes or no findings as the source states them, for the method shown. Binding seen in cells or lysates may run through a third protein. Binding can be weak; no strength is given. For part of these data: Sequences can lack the tags named with a protein.
